Assay results published in patent publication US9394233B2, “ROS-activated compounds as selective anti-cancer therapeutics” (University of Cincinnati, priority 2012, dated 2016).

Test system: MA9.3 AML cells
Assay: AML cytotoxicity, MTT assay on MA9.3 AML cell line
Assay type: cell-based, human
Conditions: IC50 in CD34+ stem/progenitor cells relative to MA9.3 AML cells
Excerpt: To assess the anti-cancer activity against AML, transformed cells were compared to closely related, non-transformed counterparts. In the case of AML, the generally accepted non-transformed cell of origin is the human CD34+ blood stem/progenitor cell. Assessing potency against normal blood stem cells is important since, without selective cytotoxicity, an agent will yield reduced efficacy and therapeutic potential. […] Therefore, a comparison of current agents and the ROS-activated compounds disclosed herein was carried out. (FIG. 3). Cytotoxicity was measured via MTT assay on CD34+ blood stem/progenitor cells (grey lines) and on the MA9.3 AML cell line (black lines), which was derived from the transformation of human CD34+ cells by introduction of the leukemia oncogene MLL-AF9.

| Structure (SMILES) | therapeutic index |
| --- | --- |
| CN(CCCOc1ccc(O)cc1)c1ccccc1 [Compound 9, 4-(3-(methyl(phenyl)amino)propoxy)phenol] | 7.7±3 |
| Nc1ccn([C@@H]2O[C@H](CO)[C@@H](O)[C@@H]2O)c(=O)n1 [ara-C, cytosine arabinoside] | 0.6±0.1 |
| O=C(O)CCCc1ccc(N(CCCl)CCCl)cc1 [chlorambucil] | 1.3±0.1 |
| N.N.[Cl][Pt][Cl] [cisplatin] | 1.0±0.2 |
| COc1cccc2c1C(=O)c1c(O)c3c(c(O)c1C2=O)C[C@@](O)(C(=O)CO)C[C@@H]3O[C@H]1C[C@H](N)[C@H](O)[C@H](C)O1 [doxorubicin] | 0.9±0.2 |
